This assay addresses T1, C-terminally tandem affinity purification (TAP)-tagged Map1 (S. cerevisiae) (UniProt Q01662).
T1 sequence: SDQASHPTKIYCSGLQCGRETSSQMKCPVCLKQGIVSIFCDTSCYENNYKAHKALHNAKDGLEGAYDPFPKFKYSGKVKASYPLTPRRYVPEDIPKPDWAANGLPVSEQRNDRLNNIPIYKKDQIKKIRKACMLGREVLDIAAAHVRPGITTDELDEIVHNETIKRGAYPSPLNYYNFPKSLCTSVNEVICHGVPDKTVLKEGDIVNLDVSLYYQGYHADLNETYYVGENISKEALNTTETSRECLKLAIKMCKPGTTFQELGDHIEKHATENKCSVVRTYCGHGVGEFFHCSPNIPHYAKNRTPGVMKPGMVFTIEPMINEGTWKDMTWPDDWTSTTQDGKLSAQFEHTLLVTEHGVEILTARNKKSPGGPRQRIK
The assay is described as follows: pull-down; native pullout of Map1-TAP from the resuspended ribosomal pellet of yeast lysate on IgG-coupled Dynabeads, 20 mM HEPES pH 7.5, 100 mM KOAc, 2.5 mM Mg(OAc)2, cycloheximide; TEV elution; western blot (anti-CAB, anti-uL29). Background: Immunoblotting shows a protein as a band on a membrane.

This passage reports binding results from paper PMC10118133.

Results are given in words; binding and its absence hold for the method and conditions named. Binding seen in cells or lysates may run through a third protein. Some binding calls cover weakened binding; strength is not graded here. Tags and fused reporters may be left off the sequences shown.

B1: ribosomal protein uL29 (protein, UniProt P0CX84 1-120)
chain: MAGVKAYELRTKSKEQLASQLVDLKKELAELKVQKLSRPSLPKIKTVRKSIACVLTVINEQQREAVRQLYKGKKYQPKDLRAKKTRALRRALTKFEASQVTEKQRKKQIAFPQRKYAIKA
Consider B1, for which the binding result is “binds”.
